Structures can show the parent of a compound that is named as a salt. Some of the results follow. This data set is noisy: repeats of one test often differ as much as different tests do.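 Test systems: triple-negative MDA-MB-231 breast cancer cells and their brain-metastatic MDA-MB-231BRM derivative, each stably carrying empty vector, full-length GLI1 or truncated tGLI1. Viability after 48 h was read by CellTiter-Blue and expressed against 1% DMSO vehicle. A compound was tGLI1-selective if it lowered viability 20% more in tGLI1 cells than in vector and GLI1 cells.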
Assays:
Assay in all cases: cell viability relative to vehicle (DMSO) control (fraction); higher = more viable cells (less growth inhibition)
Settings in all cases: treatment time 48 h
MDA-MB-231 GLI1 = system: MDA-MB-231 GLI1
MDA-MB-231 Vector = system: MDA-MB-231 Vector
MDA-MB-231 tGLI1 = system: MDA-MB-231 tGLI1
MDA-MB-231BRM GLI1 = system: MDA-MB-231BRM GLI1
MDA-MB-231BRM Vector = system: MDA-MB-231BRM Vector
MDA-MB-231BRM tGLI1 = system: MDA-MB-231BRM tGLI1

Structure (SMILES) | cell viability (MDA-MB-231 GLI1; 0.05 µM) | cell viability (MDA-MB-231 GLI1; 0.5 µM) | cell viability (MDA-MB-231 GLI1; 5 µM) | cell viability (MDA-MB-231 Vector; 0.05 µM) | cell viability (MDA-MB-231 Vector; 0.5 µM) | cell viability (MDA-MB-231 Vector; 5 µM) | cell viability (MDA-MB-231 tGLI1; 0.05 µM) | cell viability (MDA-MB-231 tGLI1; 0.5 µM) | cell viability (MDA-MB-231 tGLI1; 5 µM) | cell viability (MDA-MB-231BRM GLI1; 0.05 µM) | cell viability (MDA-MB-231BRM GLI1; 0.5 µM) | cell viability (MDA-MB-231BRM GLI1; 5 µM) | cell viability (MDA-MB-231BRM Vector; 0.05 µM) | cell viability (MDA-MB-231BRM Vector; 0.5 µM) | cell viability (MDA-MB-231BRM Vector; 5 µM) | cell viability (MDA-MB-231BRM tGLI1; 0.05 µM) | cell viability (MDA-MB-231BRM tGLI1; 0.5 µM) | cell viability (MDA-MB-231BRM tGLI1; 5 µM)
Cc1nc(Nc2ncc(C(=O)Nc3c(C)cccc3Cl)s2)cc(N2CCN(CCO)CC2)n1 [Dasatinib] | 0.582 | 0.592 | 0.423 | 0.561 | 0.481 | 0.326 | 0.474 | 0.587 | 0.26 | 0.833 | 0.774 | 0.834 | 0.899 | 0.768 | 0.808 | 0.725 | 0.721 | 0.731
Cc1ncc(-c2ccnc(Nc3ccc(S(C)(=O)=O)cc3)n2)n1C(C)C | 1.44 | 1.07 | 0.039 | 1.31 | 0.892 | 0.157 | 1.43 | 1.04 | 0.0698 | 1.08 | 1.17 | 0.854 | 1.11 | 1.18 | 0.84 | 1.14 | 1.21 | 0.768
O=S(=O)(c1cccc2cnccc12)N1CCCNCC1 [Fasudil (HA-1077) HCl] | 1.39 | 1.28 | 1.54 | 1.95 | 1.35 | 1.39 | 1.26 | 1.36 | 1.5 | 1.21 | 1.22 | 1.03 | 1.15 | 1.1 | 1.07 | 1.01 | 0.67 | 1.01
CC[C@]1(O)C[C@H]2CN(CCc3c([nH]c4ccccc34)[C@@](C(=O)OC)(c3cc4c(cc3OC)N(C=O)[C@H]3[C@@](O)(C(=O)OC)[C@H](OC(C)=O)[C@]5(CC)C=CCN6CC[C@]43[C@@H]65)C2)C1 [Vincristine] | -0.102 | -0.104 | -0.137 | -0.321 | -0.357 | -0.403 | -0.16 | -0.174 | -0.228 | 0.895 | 0.835 | 0.83 | 0.934 | 0.724 | 0.77 | 0.76 | 0.857 | 0.79
CCCNC(=O)Nc1ccc(Oc2ncnc3cc(OC)c(OC)cc23)cc1Cl | 1.42 | 1.45 | 1.49 | 1.91 | 1.35 | 1.23 | 1.32 | 1.36 | 1.2 | 1.16 | 1.05 | 0.927 | 1.16 | 1.02 | 1.1 | 0.577 | 1.05 | 1.02
CCN1/C(=C/C(C)=O)Sc2ccc(OC)cc21 | 1.16 | 1.44 | 1.07 | 1.49 | 1.4 | 1.09 | 1.29 | 1.31 | 1.33 | 1.01 | 0.942 | 1 | 1.12 | 1.02 | 1.05 | 0.96 | 0.991 | 0.998
COc1cc2ncnc(Nc3cccc(Cl)c3)c2cc1OC [AG-1478 (Tyrphostin AG-1478)] | 1.33 | 1.28 | 1.1 | 1.23 | 1.25 | 0.356 | 1.37 | 1.18 | 0.926 | 0.961 | 0.981 | 0.824 | 1.08 | 1.02 | 0.836 | 1.06 | 1.02 | 0.869
Cc1[nH]c(/C=C2\C(=O)Nc3ccc(S(=O)(=O)N(C)c4cccc(Cl)c4)cc32)c(C)c1C(=O)N1CCN(C)CC1 | 1.45 | 1.91 | 1.08 | 1.59 | 1.34 | 0.688 | 1.29 | 1.55 | 0.873 | 0.889 | 0.944 | 0.577 | 0.994 | 0.832 | 0.609 | 0.961 | 0.879 | 0.553
Cc1nc(Nc2n[nH]c3c2CN(C(=O)N[C@H](CN(C)C)c2ccccc2)C3(C)C)c2sccc2n1 | 0.427 | 0.351 | 0.146 | 0.479 | 0.392 | 0.305 | 0.328 | 0.361 | 0.169 | 0.906 | 0.806 | 0.84 | 0.871 | 0.858 | 0.82 | 0.845 | 0.731 | 0.846
Oc1ccc(-c2nc(-c3ccc(F)cc3)c(-c3ccncc3)[nH]2)cc1 | 1.13 | 1.43 | 1.07 | 1.29 | 1.09 | 0.87 | 1.06 | 1.31 | 0.808 | 0.92 | 0.88 | 0.89 | 0.846 | 0.85 | 0.856 | 0.933 | 0.892 | 0.912
Cc1cc(O)c2c(c1)C(=O)c1cccc(O)c1C2=O [Chrysophanic Acid] | 1.15 | 1.31 | 1.11 | 1.31 | 1.56 | 1.39 | 1.36 | 1.35 | 1.21 | 1 | 0.995 | 1.07 | 1.07 | 1.03 | 0.988 | 1.08 | 1.08 | 0.986
O=C(Cc1ccc(-c2ccc(OCCN3CCOCC3)cc2)cn1)NCc1ccccc1 | 0.342 | 0.077 | 0.0548 | 0.398 | 0.107 | 0.114 | 0.367 | 0.0587 | 0.0692 | 1.22 | 1.21 | 1.09 | 1.2 | 1.23 | 0.998 | 1.19 | 1.16 | 0.652
O=C(NCc1cccc(O)c1)Nc1nc(-c2ccncc2)cs1 | 1.28 | 1.32 | 0.713 | 1.25 | 1.18 | 0.808 | 1.29 | 1.05 | 0.709 | 1.26 | 1.09 | 1.08 | 1.24 | 1.16 | 1.09 | 1.13 | 1.05 | 1.01
CC#CC(=O)N1CC[C@@H](n2c(=O)n(-c3ccc(Oc4ccccc4)cc3)c3c(N)ncnc32)C1 | 2.13 | 3.03 | 1.77 | 1.26 | 1.13 | 1.14 | 1.35 | 1.47 | 1.27 | 0.787 | 0.798 | 0.615 | 0.868 | 0.714 | 0.699 | 1.1 | 1.05 | 1.08
CN1CCN(S(=O)(=O)c2ccc(-c3cnc(N)c(C(=O)Nc4cccnc4)n3)cc2)CC1 | 1.34 | 1.37 | 0.779 | 0.808 | 0.857 | 0.708 | 1.38 | 1.29 | 0.974 | 1.19 | 1.03 | 1.04 | 1 | 1.09 | 1.04 | 1.09 | 1.05 | 1
CNc1nc(Nc2cnn([C@H]3CCN(C4COC4)C[C@@H]3F)c2Cl)ncc1C(F)(F)F | 1.21 | 1.92 | 1.29 | 0.684 | 0.703 | 0.532 | 0.712 | 0.804 | 0.669 | 0.508 | 0.486 | 0.354 | 0.59 | 0.446 | 0.402 | 0.727 | 0.675 | 0.648
C#Cc1cccc(Nc2ncnc3cc4c(cc23)OCCOCCOCCO4)c1 [Icotinib] | 1.15 | 1.52 | 0.96 | 1.03 | 1.22 | 1.18 | 1.09 | 1.22 | 1.07 | 1.1 | 0.907 | 0.891 | 1.13 | 1.01 | 0.895 | 1 | 0.939 | 0.888
C[C@@H]1COCCN1c1cc(C2([S@](C)(=N)=O)CC2)nc(-c2cc[nH]c3nccc2-3)n1 | 2.2 | 2.58 | 0.637 | 1.37 | 1.07 | 0.283 | 1.39 | 0.681 | 0.349 | 0.843 | 0.836 | 0.674 | 0.9 | 0.79 | 0.664 | 1.19 | 1.14 | 1.08
CN1CCC(Nc2nc(Nc3ccc(Oc4ccccc4)cc3)c3c(=O)[nH]cc(Br)c3n2)CC1 | 1.13 | 1.35 | -0.185 | 0.662 | 0.379 | -0.178 | 0.638 | 0.538 | -0.198 | 0.591 | 0.531 | 0.00751 | 0.565 | 0.389 | 0.182 | 0.698 | 0.596 | 0.444
Cn1cc(/C=C2\C(=O)Nc3cccnc32)c2ccccc21 | 0.703 | 1.29 | 0.547 | 1.01 | 1.22 | 0.854 | 0.923 | 1.17 | 0.759 | 1.05 | 0.742 | 0.665 | 0.699 | 0.867 | 0.579 | 1.06 | 0.827 | 0.594
Nc1cccc(-c2cc3c(Oc4cccc(O)c4)ncnc3[nH]2)c1 | 1.4 | 1.31 | 0.627 | 1.88 | 1.17 | 0.499 | 1.22 | 1.24 | 0.518 | 1.14 | 1.1 | 1.06 | 1.14 | 1.01 | 1.13 | 0.93 | 0.73 | 1
COc1ccc2cccc(CCNC(C)=O)c2c1 [Agomelatine] | 1.09 | 1.09 | 1.13 | 0.938 | 1.25 | 1.44 | 1.05 | 1.05 | 1.07 | 0.996 | 1 | 0.984 | 1.06 | 0.973 | 0.989 | 0.985 | 1.02 | 0.915
O=C(NOCC(O)CO)c1cc(Br)c(F)c(F)c1Nc1ccc(I)cc1F (stereo not given) | 1.19 | 1.24 | 0.732 | 1.53 | 0.898 | 0.614 | 0.98 | 0.998 | 0.643 | 0.659 | 1.25 | 0.966 | 1.16 | 1.08 | 0.983 | 0.999 | 1.22 | 0.892
CCCCCCCCc1ccc(CCC(N)(CO)CO)cc1 [Fingolimod (FTY720) HCl] | 1.17 | 1.56 | -0.166 | 1.11 | 1.47 | -0.0252 | 0.809 | 1.47 | -0.127 | 0.976 | 0.954 | 0.906 | 1 | 1.06 | 0.941 | 1.01 | 1 | 0.863
CCS(=O)(=O)Nc1ccc2c(c1)/C(=C(/Nc1ccc(CN3CCCCC3)cc1)c1ccccc1)C(=O)N2 [Hesperadin] | 0.762 | 0.492 | 0.431 | 0.701 | 0.416 | 0.311 | 0.754 | 0.492 | 0.462 | 0.414 | 1.16 | 0.827 | 0.633 | 1.04 | 0.941 | 0.958 | 0.944 | 0.811

Three compounds out of the list, arranged by length of the SMILES, descending.
Structure (SMILES) | cell viability (MDA-MB-231 GLI1; 0.05 µM) | cell viability (MDA-MB-231 GLI1; 0.5 µM) | cell viability (MDA-MB-231 GLI1; 5 µM) | cell viability (MDA-MB-231 Vector; 0.05 µM) | cell viability (MDA-MB-231 Vector; 0.5 µM) | cell viability (MDA-MB-231 Vector; 5 µM) | cell viability (MDA-MB-231 tGLI1; 0.05 µM) | cell viability (MDA-MB-231 tGLI1; 0.5 µM) | cell viability (MDA-MB-231 tGLI1; 5 µM) | cell viability (MDA-MB-231BRM GLI1; 0.05 µM) | cell viability (MDA-MB-231BRM GLI1; 0.5 µM) | cell viability (MDA-MB-231BRM GLI1; 5 µM) | cell viability (MDA-MB-231BRM Vector; 0.05 µM) | cell viability (MDA-MB-231BRM Vector; 0.5 µM) | cell viability (MDA-MB-231BRM Vector; 5 µM) | cell viability (MDA-MB-231BRM tGLI1; 0.05 µM) | cell viability (MDA-MB-231BRM tGLI1; 0.5 µM) | cell viability (MDA-MB-231BRM tGLI1; 5 µM)
CC[C@]1(O)C[C@H]2CN(CCc3c([nH]c4ccccc34)[C@@](C(=O)OC)(c3cc4c(cc3OC)N(C=O)[C@H]3[C@@](O)(C(=O)OC)[C@H](OC(C)=O)[C@]5(CC)C=CCN6CC[C@]43[C@@H]65)C2)C1 [Vincristine] | -0.102 | -0.104 | -0.137 | -0.321 | -0.357 | -0.403 | -0.16 | -0.174 | -0.228 | 0.895 | 0.835 | 0.83 | 0.934 | 0.724 | 0.77 | 0.76 | 0.857 | 0.79
C[C@@H]1COCCN1c1cc(C2([S@](C)(=N)=O)CC2)nc(-c2cc[nH]c3nccc2-3)n1 | 2.2 | 2.58 | 0.637 | 1.37 | 1.07 | 0.283 | 1.39 | 0.681 | 0.349 | 0.843 | 0.836 | 0.674 | 0.9 | 0.79 | 0.664 | 1.19 | 1.14 | 1.08
Cc1cc(O)c2c(c1)C(=O)c1cccc(O)c1C2=O [Chrysophanic Acid] | 1.15 | 1.31 | 1.11 | 1.31 | 1.56 | 1.39 | 1.36 | 1.35 | 1.21 | 1 | 0.995 | 1.07 | 1.07 | 1.03 | 0.988 | 1.08 | 1.08 | 0.986
